No constants are given. Whether binding was seen depends on the method and setting. In cells and extracts the contact can be indirect. Some entries that bind do so weakly or less than the wild type.
Biological target: Kinetochore-associated protein 1 (human (endogenous in pancreatic cancer samples)) (UniProt P50748)
Assay: co-IP; total protein extract in 50 mmol/L Tris-HCl pH 7.4, 150 mmol/L NaCl, 0.1% SDS, 1% NP, 0.5% sodium deoxycholate, protease inhibitor; specific primary antibody or normal control IgG overnight at 4 C, agarose beads, PBS washes, western blot

The chains behind the UniProt entries cited, without tags or fusion partners.
UniProt P50748: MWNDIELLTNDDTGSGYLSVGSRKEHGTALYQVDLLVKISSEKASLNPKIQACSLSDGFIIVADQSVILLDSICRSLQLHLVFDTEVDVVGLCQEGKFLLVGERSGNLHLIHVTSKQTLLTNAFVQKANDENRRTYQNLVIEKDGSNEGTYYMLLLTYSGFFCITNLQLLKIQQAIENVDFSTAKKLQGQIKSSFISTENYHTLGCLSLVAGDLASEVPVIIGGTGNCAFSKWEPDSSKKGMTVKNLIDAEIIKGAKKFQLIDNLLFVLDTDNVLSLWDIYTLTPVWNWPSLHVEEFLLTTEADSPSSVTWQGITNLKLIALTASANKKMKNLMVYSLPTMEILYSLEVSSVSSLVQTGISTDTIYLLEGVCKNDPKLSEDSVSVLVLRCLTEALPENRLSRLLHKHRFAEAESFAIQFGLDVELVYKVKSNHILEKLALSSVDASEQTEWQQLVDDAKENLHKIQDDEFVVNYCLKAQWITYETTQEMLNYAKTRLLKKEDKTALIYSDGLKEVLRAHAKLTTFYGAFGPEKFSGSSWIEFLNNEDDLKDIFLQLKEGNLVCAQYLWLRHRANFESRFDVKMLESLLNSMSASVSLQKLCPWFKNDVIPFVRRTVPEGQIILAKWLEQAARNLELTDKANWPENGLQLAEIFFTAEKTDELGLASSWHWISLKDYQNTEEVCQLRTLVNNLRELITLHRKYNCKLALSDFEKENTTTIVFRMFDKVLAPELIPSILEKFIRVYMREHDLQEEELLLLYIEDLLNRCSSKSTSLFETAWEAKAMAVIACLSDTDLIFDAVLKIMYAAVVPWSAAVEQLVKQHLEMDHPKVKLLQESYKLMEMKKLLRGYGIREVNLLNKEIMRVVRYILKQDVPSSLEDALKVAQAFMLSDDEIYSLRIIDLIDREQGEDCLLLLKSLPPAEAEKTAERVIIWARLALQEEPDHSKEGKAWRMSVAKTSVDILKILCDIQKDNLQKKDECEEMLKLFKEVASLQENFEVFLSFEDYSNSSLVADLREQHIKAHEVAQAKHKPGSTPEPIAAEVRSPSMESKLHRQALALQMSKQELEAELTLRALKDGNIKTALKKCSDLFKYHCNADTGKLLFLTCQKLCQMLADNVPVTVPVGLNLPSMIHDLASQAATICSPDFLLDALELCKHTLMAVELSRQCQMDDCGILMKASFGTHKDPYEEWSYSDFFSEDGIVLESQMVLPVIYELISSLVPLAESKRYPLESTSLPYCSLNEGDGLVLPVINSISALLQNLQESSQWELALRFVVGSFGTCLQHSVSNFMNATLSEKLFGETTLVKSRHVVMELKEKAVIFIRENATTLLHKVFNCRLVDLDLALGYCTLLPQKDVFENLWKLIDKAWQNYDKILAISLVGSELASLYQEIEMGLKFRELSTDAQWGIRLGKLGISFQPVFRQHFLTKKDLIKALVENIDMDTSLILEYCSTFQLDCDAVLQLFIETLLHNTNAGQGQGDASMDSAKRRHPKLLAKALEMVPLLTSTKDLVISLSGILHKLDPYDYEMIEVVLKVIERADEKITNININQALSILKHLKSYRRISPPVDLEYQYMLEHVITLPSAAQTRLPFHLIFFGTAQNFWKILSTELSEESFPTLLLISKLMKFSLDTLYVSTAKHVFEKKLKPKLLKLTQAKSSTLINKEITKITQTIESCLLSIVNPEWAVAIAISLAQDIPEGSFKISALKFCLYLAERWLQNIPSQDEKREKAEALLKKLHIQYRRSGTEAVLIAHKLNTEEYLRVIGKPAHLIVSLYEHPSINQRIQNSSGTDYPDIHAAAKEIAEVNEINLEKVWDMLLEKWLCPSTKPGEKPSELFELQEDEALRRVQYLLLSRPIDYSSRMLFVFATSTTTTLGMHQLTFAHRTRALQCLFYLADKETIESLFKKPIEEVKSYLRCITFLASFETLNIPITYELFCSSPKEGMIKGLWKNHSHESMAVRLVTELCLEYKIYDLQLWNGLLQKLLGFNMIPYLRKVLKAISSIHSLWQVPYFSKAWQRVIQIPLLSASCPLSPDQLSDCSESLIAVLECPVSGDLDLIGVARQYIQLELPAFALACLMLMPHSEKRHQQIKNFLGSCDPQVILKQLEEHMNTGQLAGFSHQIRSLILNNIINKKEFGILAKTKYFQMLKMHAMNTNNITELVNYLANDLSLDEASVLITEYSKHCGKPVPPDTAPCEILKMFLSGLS

B1: cell division cycle associated 8 (protein, UniProt Q53HL2 1-280)
chain: MAPRKGSSRVAKTNSLRRRKLASFLKDFDREVEIRIKQIESDRQNLLKEVDNLYNIEILRLPKALREMNWLDYFALGGNKQALEEAATADLDITEINKLTAEAIQTPLKSAKTRKVIQVDEMIVEEEEEEENERKNLQTARVKRCPPSKKRTQSIQGKGKGKRSSRANTVTPAVGRLEVSMVKPTPGLTPRFDSRVFKTPGLRTPAAGERIYNISGNGSPLADSKEIFLTVPVGGGESLRLLASDLQRHSIAQLDPEALGNIKKLSNRLAQICSSIRTHK
  binding: binds
